# For at least one entry, the source does not settle the construct or the ends of the probe. For some of these results: No signal at the amounts used counts as a negative. For some of these results: Protein sequences can lack the tags named with them. For some of these results: The comparison behind a weaker result is the experiment's own reference, which may not be listed here.
# The chains behind the UniProt entries cited, without tags or fusion partners.
# UniProt P19821, whole entry: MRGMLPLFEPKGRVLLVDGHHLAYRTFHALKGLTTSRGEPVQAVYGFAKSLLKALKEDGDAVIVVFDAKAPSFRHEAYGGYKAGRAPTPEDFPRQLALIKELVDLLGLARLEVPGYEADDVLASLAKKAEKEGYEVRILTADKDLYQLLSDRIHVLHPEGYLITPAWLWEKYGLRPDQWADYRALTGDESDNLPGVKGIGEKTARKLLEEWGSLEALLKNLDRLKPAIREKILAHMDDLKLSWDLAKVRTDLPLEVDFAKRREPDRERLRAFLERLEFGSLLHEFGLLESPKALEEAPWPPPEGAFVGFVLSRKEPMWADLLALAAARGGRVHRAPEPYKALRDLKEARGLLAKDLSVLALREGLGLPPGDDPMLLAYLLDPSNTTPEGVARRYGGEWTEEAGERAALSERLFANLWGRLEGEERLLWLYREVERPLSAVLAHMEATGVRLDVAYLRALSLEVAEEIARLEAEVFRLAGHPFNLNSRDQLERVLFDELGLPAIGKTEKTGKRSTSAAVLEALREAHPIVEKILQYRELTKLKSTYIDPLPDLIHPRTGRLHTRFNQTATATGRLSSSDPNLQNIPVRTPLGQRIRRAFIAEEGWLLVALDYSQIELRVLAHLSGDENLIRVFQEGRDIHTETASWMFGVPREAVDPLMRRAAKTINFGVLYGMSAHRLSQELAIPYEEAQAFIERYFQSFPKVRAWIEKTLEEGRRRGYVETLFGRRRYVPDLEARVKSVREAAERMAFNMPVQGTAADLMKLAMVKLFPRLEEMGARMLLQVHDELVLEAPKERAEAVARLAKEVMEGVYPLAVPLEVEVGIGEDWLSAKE
# Assays:
# Experiment in all cases: inhibition of the protein
# [1] = target: Taq DNA polymerase (UniProt P19821); details: purified recombinant protein, protein details: GenScript E00007, single-stranded DNA
# [2] = target: T1, Bst DNA polymerase large fragment (UniProt P52026); details: deoxyinosine at n (position 35) [35 (deoxyinosine, parent G)]; Bst not inactivated, 80 nM aptamer; 5 mM MgCl2, 60 or 65 C; purified recombinant protein; protein details: New England Biolabs M0275S; single-stranded DNA; letters built from the parent sequence and the stated change; variant of aptamer SEQ ID NO:5
# T1 sequence (looked up, limits assumed): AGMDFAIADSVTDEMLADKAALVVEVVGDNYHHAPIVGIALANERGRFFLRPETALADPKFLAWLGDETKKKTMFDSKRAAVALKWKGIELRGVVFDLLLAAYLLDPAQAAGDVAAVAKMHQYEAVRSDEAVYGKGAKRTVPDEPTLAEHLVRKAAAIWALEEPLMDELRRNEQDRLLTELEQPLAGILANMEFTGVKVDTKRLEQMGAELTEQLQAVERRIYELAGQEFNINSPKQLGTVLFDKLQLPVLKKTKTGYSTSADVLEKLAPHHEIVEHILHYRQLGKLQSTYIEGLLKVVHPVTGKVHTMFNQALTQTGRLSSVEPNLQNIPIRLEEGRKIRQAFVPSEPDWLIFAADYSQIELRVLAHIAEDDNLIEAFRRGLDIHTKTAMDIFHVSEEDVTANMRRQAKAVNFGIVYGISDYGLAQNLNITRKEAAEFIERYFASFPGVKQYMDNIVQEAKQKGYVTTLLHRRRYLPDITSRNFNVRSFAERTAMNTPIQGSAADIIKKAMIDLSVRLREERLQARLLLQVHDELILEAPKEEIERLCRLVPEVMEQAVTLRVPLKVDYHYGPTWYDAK
# [3] = target: T2, Deep Vent DNA polymerase (UniProt Q51334); details: deoxyinosine at n (position 35) [35 (deoxyinosine, parent G)]; inactivated in hairpin extension assay, 80 nM aptamer, reactivated by EndoV; 5 mM MgCl2, 60 or 65 C; purified recombinant protein; protein details: New England Biolabs M0258S; single-stranded DNA; letters built from the parent sequence and the stated change; variant of aptamer SEQ ID NO:5
# T2 sequence (looked up, limits assumed): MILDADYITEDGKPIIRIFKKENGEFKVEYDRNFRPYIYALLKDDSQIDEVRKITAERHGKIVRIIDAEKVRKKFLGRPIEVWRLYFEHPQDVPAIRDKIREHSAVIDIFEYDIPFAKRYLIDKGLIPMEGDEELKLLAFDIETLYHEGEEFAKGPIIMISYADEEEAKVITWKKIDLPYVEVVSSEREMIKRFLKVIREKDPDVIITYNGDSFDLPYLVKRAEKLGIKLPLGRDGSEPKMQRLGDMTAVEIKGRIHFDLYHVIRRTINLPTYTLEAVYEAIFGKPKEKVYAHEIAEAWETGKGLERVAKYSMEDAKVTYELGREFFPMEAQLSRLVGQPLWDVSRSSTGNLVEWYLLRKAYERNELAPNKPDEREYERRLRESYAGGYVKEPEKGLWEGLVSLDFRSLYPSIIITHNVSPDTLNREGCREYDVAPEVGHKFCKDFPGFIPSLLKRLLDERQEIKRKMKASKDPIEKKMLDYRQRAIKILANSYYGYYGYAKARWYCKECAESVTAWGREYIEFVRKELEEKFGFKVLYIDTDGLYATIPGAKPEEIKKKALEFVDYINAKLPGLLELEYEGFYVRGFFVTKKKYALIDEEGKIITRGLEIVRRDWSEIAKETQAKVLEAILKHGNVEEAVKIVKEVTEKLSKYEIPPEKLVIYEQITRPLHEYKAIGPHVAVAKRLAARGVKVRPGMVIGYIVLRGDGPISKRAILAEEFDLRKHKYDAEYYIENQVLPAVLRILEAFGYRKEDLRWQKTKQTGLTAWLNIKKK
# [4] = system: Phusion DNA polymerase; details: deoxyinosine at n (position 35) [35 (deoxyinosine, parent G)]; inactivated in hairpin extension assay, 80 nM aptamer, reactivated by EndoV; 5 mM MgCl2, 60 or 65 C; purified recombinant protein; protein details: New England Biolabs M0530S; single-stranded DNA; letters built from the parent sequence and the stated change; variant of aptamer SEQ ID NO:5
# [5] = system: Q5 DNA polymerase; details: deoxyinosine at n (position 35) [35 (deoxyinosine, parent G)]; inactivated in hairpin extension assay, 80 nM aptamer, reactivated by EndoV; 5 mM MgCl2, 60 or 65 C; purified recombinant protein; protein details: New England Biolabs M0491S; single-stranded DNA; letters built from the parent sequence and the stated change; variant of aptamer SEQ ID NO:5
# [6] = target: T3, Vent DNA polymerase (UniProt P30317); details: deoxyinosine at n (position 35) [35 (deoxyinosine, parent G)]; inactivated in hairpin extension assay, 80 nM aptamer, reactivated by EndoV; 5 mM MgCl2, 60 or 65 C; purified recombinant protein; protein details: New England Biolabs M0254S; single-stranded DNA; letters built from the parent sequence and the stated change; variant of aptamer SEQ ID NO:5
# T3 sequence (looked up, limits assumed): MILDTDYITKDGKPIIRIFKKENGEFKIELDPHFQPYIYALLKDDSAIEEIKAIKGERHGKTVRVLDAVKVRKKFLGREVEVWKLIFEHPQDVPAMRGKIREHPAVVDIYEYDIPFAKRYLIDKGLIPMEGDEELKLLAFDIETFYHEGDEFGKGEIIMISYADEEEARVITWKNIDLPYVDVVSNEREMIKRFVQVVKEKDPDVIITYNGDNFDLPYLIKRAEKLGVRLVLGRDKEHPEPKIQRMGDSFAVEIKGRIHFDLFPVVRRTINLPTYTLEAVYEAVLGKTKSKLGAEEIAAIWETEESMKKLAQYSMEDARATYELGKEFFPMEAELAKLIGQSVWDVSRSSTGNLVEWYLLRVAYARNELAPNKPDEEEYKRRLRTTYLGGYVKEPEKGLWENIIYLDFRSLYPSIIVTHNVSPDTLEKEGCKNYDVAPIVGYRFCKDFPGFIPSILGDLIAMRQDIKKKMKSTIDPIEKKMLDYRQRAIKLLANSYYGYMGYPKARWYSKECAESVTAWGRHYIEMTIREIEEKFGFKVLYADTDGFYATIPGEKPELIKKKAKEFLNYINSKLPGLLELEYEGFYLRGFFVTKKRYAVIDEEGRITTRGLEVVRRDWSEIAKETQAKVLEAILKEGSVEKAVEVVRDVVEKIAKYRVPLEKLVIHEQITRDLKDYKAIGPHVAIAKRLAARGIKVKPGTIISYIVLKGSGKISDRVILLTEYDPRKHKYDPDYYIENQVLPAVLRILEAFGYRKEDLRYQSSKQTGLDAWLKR
sequence,measurement,setting,value
GGACTACTACTACTACTGATTCTTAGCGTTTTCAGTAGTAGTAGTAGTCCT [aptamer SEQ ID NO:5],functional effect of the aptamer,"[1]; effectively blocks Taq in real-time PCR, 20 nM aptamer, 5 mM MgCl2, 50 mM KCl, 20 mM Tris pH 8.0, 60 C",active
GGACTACTACTACTACTGATTCTTAGCGTTTTCAGTAGTAGTAGTAGTCCT [aptamer SEQ ID NO:17],functional effect of the aptamer,"[1]; deoxyinosine at n (position 26, loop) [26 (deoxyinosine)], ideal inactivation, block completely lost after EndoV cleavage, 20 nM, 5 mM MgCl2, 60 C, letters built from the parent sequence and the stated change, variant of aptamer SEQ ID NO:5",active
CCTGATGATGATGATGACATTCTTAGCGTTTTGTCATCATCATCATCAGGT [aptamer SEQ ID NO:12],functional effect of the aptamer,"[1]; deoxyinosine at n (position 13) [13 (deoxyinosine)], ideal inactivation, activity restored with EndoV, 20 nM, 5 mM MgCl2, 60 C, letters built from the parent sequence and the stated change, variant of aptamer SEQ ID NO:11",active
CCTGATGATGATGATGACATTCTTAGCGTTTTGTCATCATCATCATCAGGT [aptamer SEQ ID NO:16],functional effect of the aptamer,"[1]; deoxyinosine at n (positions 7, 10, 13 and 16) [7, 10, 13, 16 (deoxyinosine)], four I-C pairs destabilise duplex, inactivation negatively affected, 20 nM, 5 mM MgCl2, 60 C, letters built from the parent sequence and the stated change, variant of aptamer SEQ ID NO:11",less active
GGACTACTACTACTACTGATTCTTAGCGTTTTCAGTAGTAGTAGTAGTCCT [aptamer SEQ ID NO:8],functional effect of the aptamer,"[1]; deoxyinosine at n (positions 18 and 35) [18,35 (deoxyinosine, parent G)], two I-C pairs destabilise duplex, inactivation negatively affected, 20 nM, 5 mM MgCl2, 60 C, letters built from the parent sequence and the stated change, variant of aptamer SEQ ID NO:5",less active
CCTGATGATGATGATGACATTCTTAGCGTTTTGTCATCATCATCATCAGGT [aptamer SEQ ID NO:14],functional effect of the aptamer,"[1]; deoxyinosine at n (position 7) [7 (deoxyinosine)], truncated hairpin after EndoV likely still blocks, 20 nM, 5 mM MgCl2, 60 C, letters built from the parent sequence and the stated change, variant of aptamer SEQ ID NO:11",active
GGACTACTACTACTACTGATTCTTAGCGTTTTCAGTAGTAGTAGTAGTCCT [aptamer SEQ ID NO:20],functional effect of the aptamer,"[1]; deoxyinosine at n (position 24, loop) [24 (deoxyinosine)], inactivates Taq but somewhat less effective, activity completely restored with EndoV, 20 nM, 5 mM MgCl2, 60 C, letters built from the parent sequence and the stated change, variant of aptamer SEQ ID NO:5",less active
GGACTACTACTACTACTGATTCTTAGCGTTTTCAGTAGTAGTAGTAGTCCT [aptamer SEQ ID NO:6],functional effect of the aptamer,[2],not active
same,functional effect of the aptamer,[3],active
same,functional effect of the aptamer,[4],active
same,functional effect of the aptamer,[5],active
same,functional effect of the aptamer,"[1]; deoxyinosine at n (position 35) [35 (deoxyinosine, parent G)], ideal inactivation, activity restored with EndoV, 20 nM, 5 mM MgCl2, 60 C, letters built from the parent sequence and the stated change, variant of aptamer SEQ ID NO:5",active
same,functional effect of the aptamer,[6],active
GGACTACTACTACTACTGATTCTTAGCGTTTTCAGTAGTAGTAGTAGTCCT [aptamer SEQ ID NO:18],functional effect of the aptamer,"[1]; deoxyinosine at n (position 28, loop) [28 (deoxyinosine)], very weak inactivation, block completely lost after EndoV cleavage, 20 nM, 5 mM MgCl2, 60 C, letters built from the parent sequence and the stated change, variant of aptamer SEQ ID NO:5",less active
CCTGATGATGATGATGACATTCTTAGCGTTTTGTCATCATCATCATCAGGT [aptamer SEQ ID NO:13],functional effect of the aptamer,"[1]; deoxyinosine at n (position 10) [10 (deoxyinosine)], ideal inactivation, activity restored with EndoV, 20 nM, 5 mM MgCl2, 60 C, letters built from the parent sequence and the stated change, variant of aptamer SEQ ID NO:11",active
GGACTACTACTACTACTGATTCTTAGCGTTTTCAGTAGTAGTAGTAGTCCT [aptamer SEQ ID NO:7],functional effect of the aptamer,"[1]; deoxyinosine at n (position 18) [18 (deoxyinosine, parent G)], less effective block, inosine too close to loop, 20 nM, 5 mM MgCl2, 60 C, letters built from the parent sequence and the stated change, variant of aptamer SEQ ID NO:5",less active
GGACTACTACTACTACTGATTCTTAGCGTTTTCAGTAGTAGTAGTAGTCCT [aptamer SEQ ID NO:19],functional effect of the aptamer,"[1]; deoxyinosine at n (position 23, loop) [23 (deoxyinosine)], inactivates Taq, activity completely restored with EndoV, 20 nM, 5 mM MgCl2, 60 C, letters built from the parent sequence and the stated change, variant of aptamer SEQ ID NO:5",active
GGACTACTACTACTACTGATTCTTAGCGTTTTCAGTAGTAGTAGTAGTCCT [aptamer SEQ ID NO:9],functional effect of the aptamer,"[1]; deoxyinosine at n (position 38) [38 (deoxyinosine, parent G)], ideal inactivation, activity restored with EndoV, 20 nM, 5 mM MgCl2, 60 C, letters built from the parent sequence and the stated change, variant of aptamer SEQ ID NO:5",active
CCTGATGATGATGATGACATTCTTAGCGTTTTGTCATCATCATCATCAGGT [aptamer SEQ ID NO:11],functional effect of the aptamer,"[1]; effectively blocks Taq in real-time PCR, stem strands exchanged, 20 nM, 5 mM MgCl2, 60 C, variant of aptamer SEQ ID NO:5",active

# Reference: patent publication US10724083
